Screening data

Data taken from PubChem BioAssay AID463188, deposited by University of Pittsburgh Molecular Library Screening Center (2010).

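A z-score from a phospho-tyrosine peptide counterscreen run alongside a FRET kinase assay of purified Hck-YEEI bound to Nef, read after timed room-temperature incubations.
Compounds were tested at a single concentration of 10 µM.
The number is a z-score for the p-Tyr peptide counterscreen; higher values mean a stronger counterscreen signal, and values above 3 mark a compound as likely interfering.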

Common to all entries: measured here: p-Tyr peptide counterscreen.
Part of the compounds only, not a random draw; the main read-out is not listed here.

CN1C(=O)NC(c2ccccc2)C2=C1CN(c1ccc3ccccc3c1)C2=O (stereo not shown) gave z-score 0.4751.
C=CCn1c(-c2cccs2)nc2nc3ccccc3nc21 gave z-score 25.04.
COc1ccc(C=C2C(=O)c3ccccc3C2=O)cc1O gave z-score -1.786.
N#Cc1c(-c2ccncc2)c2c([nH]c1=O)-c1ccccc1OC2 gave z-score 15.65.
COc1cc(/C=C(/C#N)c2nc3ccccc3[nH]2)ccc1OCc1ccc(C(=O)O)o1 gave z-score 1.872.
N#Cc1c(-c2cccs2)nc(SCc2ccc(Cl)cc2)[nH]c1=O gave z-score 0.04148.
Cc1noc(/C=C/c2ccco2)c1S(=O)(=O)N1CCC(C(=O)N2CCc3ccccc3C2)CC1 gave z-score 3.519.
COc1cc(/C=C(/C#N)c2ccc(F)cc2)ccc1OCc1ccc(C(=O)O)o1 gave z-score 0.6267.
N#Cc1cccc(NC(=O)COC(=O)c2cccc(N3C(=O)c4ccccc4C3=O)c2)c1 gave z-score -1.326.
Nc1cc([N+](=O)[O-])ccc1Nc1ccccc1 gave z-score 0.1483.
C/C(N)=C(/C#N)C(=O)CSc1nc2ccccc2c(=O)n1Cc1ccc(C)cc1 gave z-score -1.644.
COc1cc(/C=C/[N+](=O)[O-])ccc1OCc1cccc(C(=O)O)c1 gave z-score -1.253.
COc1ccc(C2C3=C(CC(C)(C)CC3=O)N(C)C3=C2C(=O)CC(C)(C)C3)cc1 gave z-score 23.64.
Cc1ccc(N2C(=O)NC(=O)/C(=C\C=C\c3ccco3)C2=O)cc1C gave z-score -0.9692.
Cc1ccc(O)c(NC(=S)NC(=O)/C=C/c2ccco2)c1 gave z-score -2.26.
COC1C=CC(CNC(=O)c2cc3c(=O)n4cccc(C)c4nc3n2C)(OC)O1 (stereo not shown) gave z-score 27.29.
C=CCOc1ccc(/C=C2\SC(=S)N(C(C(=O)O)c3ccccc3)C2=O)cc1 (stereo not shown) gave z-score 0.1375.
COc1cc(-c2cc(=O)c3c(O)cc(O)cc3o2)ccc1O gave z-score -1.371.
CCOC(=O)c1cnc2ccc(OCC)cc2c1N1CCN(c2ccccc2OC)CC1 gave z-score 0.7071.
Clc1ccc2[nH]c3c(c2c1)CCc1cn[nH]c1-3 gave z-score 1.642.
O=C(N/N=C/c1ccc(Cl)c([N+](=O)[O-])c1)c1cc(-c2ccc3c4c(cccc24)CC3)n[nH]1 gave z-score -1.121.
COc1ccc2nc(-n3c(O)c(C4=c5ccccc5=NC4=O)[nH]c3=S)sc2c1 gave z-score 1.125.
O=C(Cc1csc(N2CCOCC2)n1)N/N=C/c1ccc(O)c(O)c1O gave z-score -0.02469.
O=C1NN(c2ccccc2)C(=O)/C1=C\c1coc2ccc(O)cc2c1=O gave z-score -0.1785.
O=c1c(-c2ccc(O)cc2)coc2cc(O)cc(O)c12 gave z-score -0.05803.
CC(C)N1CC(O)=C(c2nc3ccccc3[nH]2)C1=N gave z-score 0.27.
COc1cc2c(C#N)c(N3CCCC3)nc(N)c2c(N)n1 gave z-score 2.295.
N=C1S/C(=C\c2ccc(-c3cccc(Cl)c3)o2)C(=O)N1c1nccs1 gave z-score 0.7025.
Cc1cc(=O)[nH]c(/N=C(\N)Nc2ccc(Oc3ccccc3)cc2)n1 gave z-score -0.7778.
Nc1c(C(=O)NC2CC2)sc2nc3c(c(-c4ccco4)c12)CC/C3=C/c1ccco1 gave z-score 1.363.
O=C(Nc1ccc2c(c1)OCCO2)c1cc(-c2ccccn2)nc2ccc(Br)cc12 gave z-score -1.868.
Cn1c(N/N=C2\CCCc3ccccc32)nc2c1c(=O)n(Cc1ccc(F)cc1)c(=O)n2C gave z-score 1.497.
Fc1ccc(/C=N/Nc2ncnc3nc[nH]c23)cc1F gave z-score 0.3198.
O=C(Nc1ccc2oc(=O)ccc2c1)c1ccc(-c2cccc([N+](=O)[O-])c2)o1 gave z-score -2.029.
Cc1ccc2nc(NC(=O)c3cccc(-c4cc5ccccc5oc4=O)c3)sc2c1 gave z-score 2.77.
COc1ccc(NC(=O)CN2C(=O)/C(=C3\SC(=S)N(C4CCS(=O)(=O)C4)C3=O)c3ccccc32)cc1 (stereo not shown) gave z-score -0.08964.
C=CCOc1ccc(Br)cc1/C=C1/SC(=Nc2ccc(C(=O)O)cc2)NC1=O gave z-score -1.387.
CCN(CC)c1ccc(-c2nnc(SCC(=O)Nc3ccccc3C#N)n2-c2ccccc2)cc1 gave z-score 1.3.
CCc1ccc2c(c1)C(=O)C(=O)N2CC(=O)Nc1ccc(NC(=O)c2ccccn2)cc1 gave z-score -0.766.
NS(=O)(=O)c1ccc(NC(=O)/C=C/c2cn(-c3ccccc3)nc2-c2cccc(Cl)c2)cc1 gave z-score 3.038.
Brc1ccc(C2C3=C(Nc4ncnn42)c2ccccc2OC3c2ccncc2)cc1 (stereo not shown) gave z-score 1.507.
Brc1ccc(Nc2ncnc3[nH]ncc23)cc1 gave z-score -1.233.
CCC(=O)OC1(C)C(=O)C=C2C=C(c3ccsc3)OC=C2C1=O (stereo not shown) gave z-score -0.3698.
Cc1ccc(NC(=O)Nc2sc(=S)n(C)c2C)cc1 gave z-score 2.188.
CCOC(=O)c1[nH]c2ccccc2c1NC(=S)Nc1cc(C)ccc1C gave z-score 0.3566.